Reference: paper PMC11172885
These are yes or no findings as the source states them, for the method shown. In cells and extracts the contact can be indirect. Some results given as binding are weak or reduced against the parent protein; the word gives no strength.

By UniProt entry, the sequences of proteins in these tests, tags left out.
UniProt Q6IQ55: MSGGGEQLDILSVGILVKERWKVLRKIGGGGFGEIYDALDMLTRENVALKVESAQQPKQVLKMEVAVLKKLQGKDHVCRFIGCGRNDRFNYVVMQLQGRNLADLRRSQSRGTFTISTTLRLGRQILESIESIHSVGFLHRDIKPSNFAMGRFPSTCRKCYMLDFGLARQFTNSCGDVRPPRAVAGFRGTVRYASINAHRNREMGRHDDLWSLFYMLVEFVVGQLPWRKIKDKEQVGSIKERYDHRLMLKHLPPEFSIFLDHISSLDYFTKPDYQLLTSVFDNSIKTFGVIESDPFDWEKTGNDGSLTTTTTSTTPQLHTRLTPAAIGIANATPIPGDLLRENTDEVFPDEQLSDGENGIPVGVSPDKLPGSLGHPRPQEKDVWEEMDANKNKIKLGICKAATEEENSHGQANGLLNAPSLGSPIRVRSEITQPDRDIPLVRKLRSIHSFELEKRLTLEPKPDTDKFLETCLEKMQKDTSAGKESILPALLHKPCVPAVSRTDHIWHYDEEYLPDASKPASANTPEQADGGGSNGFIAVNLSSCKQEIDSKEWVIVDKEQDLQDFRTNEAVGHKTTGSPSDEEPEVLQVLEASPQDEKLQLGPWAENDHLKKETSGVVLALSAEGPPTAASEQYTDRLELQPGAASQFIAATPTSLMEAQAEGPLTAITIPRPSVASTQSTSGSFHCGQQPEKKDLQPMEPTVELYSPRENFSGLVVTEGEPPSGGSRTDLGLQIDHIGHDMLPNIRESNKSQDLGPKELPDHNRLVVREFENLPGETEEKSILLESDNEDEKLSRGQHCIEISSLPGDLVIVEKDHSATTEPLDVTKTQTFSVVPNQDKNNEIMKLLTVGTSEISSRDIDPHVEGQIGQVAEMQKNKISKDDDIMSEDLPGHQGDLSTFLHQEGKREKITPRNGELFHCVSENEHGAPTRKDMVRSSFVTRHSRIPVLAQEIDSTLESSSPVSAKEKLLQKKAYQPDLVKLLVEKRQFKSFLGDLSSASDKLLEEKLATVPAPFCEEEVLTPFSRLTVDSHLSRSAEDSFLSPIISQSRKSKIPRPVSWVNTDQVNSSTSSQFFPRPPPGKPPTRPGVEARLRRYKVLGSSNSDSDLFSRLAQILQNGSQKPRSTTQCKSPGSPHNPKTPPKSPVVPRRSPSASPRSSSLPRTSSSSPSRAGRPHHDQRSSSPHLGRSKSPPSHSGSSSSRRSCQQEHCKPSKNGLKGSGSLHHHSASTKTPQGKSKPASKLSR

Molecular target: TTBK2 (tau tubulin kinase 2) (human (endogenous in RCTE)) (UniProt Q6IQ55)
Assay: co-IP; anti-SMYD3 and anti-TTBK2 antibodies and isotype controls coupled to protein A agarose beads; cell lysates (1% Triton X-100, 150 mM NaCl, pH 7.4) incubated overnight at 4 °C; washed with lysis buffer containing an additional 300 mM NaCl; Western blot

- binding: binds
B1: SET- and MYND-domain-containing protein 3 (SMYD3) (protein, UniProt Q9H7B4 1-428)
chain: MEPLKVEKFATAKRGNGLRAVTPLRPGELLFRSDPLAYTVCKGSRGVVCDRCLLGKEKLMRCSQCRVAKYCSAKCQKKAWPDHKRECKCLKSCKPRYPPDSVRLLGRVVFKLMDGAPSESEKLYSFYDLESNINKLTEDKKEGLRQLVMTFQHFMREEIQDASQLPPAFDLFEAFAKVICNSFTICNAEMQEVGVGLYPSISLLNHSCDPNCSIVFNGPHLLLRAVRDIEVGEELTICYLDMLMTSEERRKQLRDQYCFECDCFRCQTQDKDADMLTGDEQVWKEVQESLKKIEELKAHWKWEQVLAMCQAIISSNSERLPDINIYQLKVLDCAMDACINLGLLEEALFYGTRTMEPYRIFFPGSHPVRGVQVMKVGKLQLHQGMFPQAMKNLRLAFDIMRVTHGREHSLIEDLILLLEECDANIRAS
